Test results from paper PMC7869572.
Results are given in words; binding and its absence hold for the method and conditions named. Binding seen in cells or lysates may run through a third protein. Some entries that bind do so weakly or less than the wild type.

Chains of the proteins cited; added tags and fusions are not shown.
UniProt Q93008: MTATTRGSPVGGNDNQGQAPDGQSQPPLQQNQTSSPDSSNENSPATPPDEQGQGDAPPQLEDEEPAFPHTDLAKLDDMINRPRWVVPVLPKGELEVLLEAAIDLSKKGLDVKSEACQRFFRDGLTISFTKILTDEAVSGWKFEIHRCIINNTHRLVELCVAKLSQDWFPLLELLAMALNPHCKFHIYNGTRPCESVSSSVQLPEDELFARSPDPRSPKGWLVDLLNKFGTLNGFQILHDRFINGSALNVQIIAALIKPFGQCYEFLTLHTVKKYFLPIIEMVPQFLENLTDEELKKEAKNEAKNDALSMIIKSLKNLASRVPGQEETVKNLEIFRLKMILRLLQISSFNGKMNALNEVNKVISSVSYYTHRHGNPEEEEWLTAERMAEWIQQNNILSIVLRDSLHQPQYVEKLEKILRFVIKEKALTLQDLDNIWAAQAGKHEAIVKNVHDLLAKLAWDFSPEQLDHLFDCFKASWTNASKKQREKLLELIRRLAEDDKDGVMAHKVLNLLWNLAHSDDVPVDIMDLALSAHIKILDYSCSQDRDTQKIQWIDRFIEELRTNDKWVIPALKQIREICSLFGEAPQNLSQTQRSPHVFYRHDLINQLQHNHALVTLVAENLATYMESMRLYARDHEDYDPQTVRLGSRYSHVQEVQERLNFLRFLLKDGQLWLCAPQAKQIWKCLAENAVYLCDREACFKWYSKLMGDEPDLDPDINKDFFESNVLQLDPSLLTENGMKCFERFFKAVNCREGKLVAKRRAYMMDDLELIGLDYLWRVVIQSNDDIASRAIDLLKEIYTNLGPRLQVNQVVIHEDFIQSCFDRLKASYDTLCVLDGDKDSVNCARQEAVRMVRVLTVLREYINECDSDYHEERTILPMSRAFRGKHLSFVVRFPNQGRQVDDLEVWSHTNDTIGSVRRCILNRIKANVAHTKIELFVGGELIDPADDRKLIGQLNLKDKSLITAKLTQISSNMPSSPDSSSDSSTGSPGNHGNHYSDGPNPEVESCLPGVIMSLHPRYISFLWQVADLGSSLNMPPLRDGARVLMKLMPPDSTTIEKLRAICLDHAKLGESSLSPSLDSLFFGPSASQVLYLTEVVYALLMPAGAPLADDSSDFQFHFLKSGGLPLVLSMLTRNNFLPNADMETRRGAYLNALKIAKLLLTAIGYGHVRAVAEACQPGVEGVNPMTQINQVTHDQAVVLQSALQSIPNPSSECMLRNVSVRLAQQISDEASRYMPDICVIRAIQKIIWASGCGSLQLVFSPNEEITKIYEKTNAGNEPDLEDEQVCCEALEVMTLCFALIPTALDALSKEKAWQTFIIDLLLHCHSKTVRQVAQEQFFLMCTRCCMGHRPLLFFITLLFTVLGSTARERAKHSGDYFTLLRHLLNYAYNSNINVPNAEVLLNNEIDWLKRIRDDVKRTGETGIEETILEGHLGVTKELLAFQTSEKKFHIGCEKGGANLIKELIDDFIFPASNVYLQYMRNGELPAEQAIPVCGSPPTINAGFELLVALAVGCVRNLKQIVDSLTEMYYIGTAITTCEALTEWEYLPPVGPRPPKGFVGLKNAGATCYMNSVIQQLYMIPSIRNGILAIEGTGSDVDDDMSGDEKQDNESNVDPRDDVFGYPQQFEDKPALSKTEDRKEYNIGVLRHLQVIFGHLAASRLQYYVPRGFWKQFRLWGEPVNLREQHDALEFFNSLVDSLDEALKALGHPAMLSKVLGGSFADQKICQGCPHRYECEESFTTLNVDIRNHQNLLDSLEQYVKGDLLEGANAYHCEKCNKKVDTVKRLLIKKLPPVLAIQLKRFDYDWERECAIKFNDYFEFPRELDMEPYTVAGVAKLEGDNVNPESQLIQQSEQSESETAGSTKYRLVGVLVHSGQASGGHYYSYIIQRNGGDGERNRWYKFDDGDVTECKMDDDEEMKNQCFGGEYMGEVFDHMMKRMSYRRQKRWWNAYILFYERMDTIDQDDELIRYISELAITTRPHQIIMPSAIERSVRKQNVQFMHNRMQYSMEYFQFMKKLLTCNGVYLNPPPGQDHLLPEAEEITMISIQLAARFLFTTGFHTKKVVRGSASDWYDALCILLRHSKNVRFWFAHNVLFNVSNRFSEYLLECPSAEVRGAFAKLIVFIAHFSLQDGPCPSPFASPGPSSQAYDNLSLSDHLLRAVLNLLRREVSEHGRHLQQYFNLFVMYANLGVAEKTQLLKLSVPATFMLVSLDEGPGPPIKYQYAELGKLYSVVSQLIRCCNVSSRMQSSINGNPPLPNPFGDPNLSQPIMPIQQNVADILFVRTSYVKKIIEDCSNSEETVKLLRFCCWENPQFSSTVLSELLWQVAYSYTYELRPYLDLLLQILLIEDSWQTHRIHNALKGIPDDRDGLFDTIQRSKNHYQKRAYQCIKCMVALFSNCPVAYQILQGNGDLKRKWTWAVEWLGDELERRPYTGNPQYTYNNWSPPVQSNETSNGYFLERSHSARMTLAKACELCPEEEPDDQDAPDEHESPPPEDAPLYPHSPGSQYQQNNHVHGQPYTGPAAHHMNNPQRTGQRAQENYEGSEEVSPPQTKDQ
UniProt P48431: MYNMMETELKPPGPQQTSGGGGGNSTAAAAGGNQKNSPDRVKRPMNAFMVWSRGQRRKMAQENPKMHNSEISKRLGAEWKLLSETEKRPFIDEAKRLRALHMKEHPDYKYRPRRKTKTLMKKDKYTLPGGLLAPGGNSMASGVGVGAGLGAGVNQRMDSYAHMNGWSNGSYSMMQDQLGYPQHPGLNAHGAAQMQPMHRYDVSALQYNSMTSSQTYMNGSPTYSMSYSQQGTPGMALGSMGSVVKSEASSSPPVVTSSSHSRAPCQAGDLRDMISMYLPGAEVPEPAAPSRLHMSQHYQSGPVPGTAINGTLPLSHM

Target: HA-Usp9x (full-length), ubiquitin-specific peptidase 9, X-linked (UniProt Q93008)
Test: co-IP; HA-Usp9x and FLAG-SOX2 co-expressed in HEK293T; lysis in 25 mM HEPES pH 7.5, 400 mM NaCl, 0.5% IGEPAL CA-630, diluted to 100 mM NaCl and 0.125% IGEPAL; 0.5 mg lysate protein immunoprecipitated with anti-HA for 18 hours, protein A/G 2 h at 4°C; immunoblot with anti-FLAG

FLAG-SOX2 (pCMV6-FLAG-SOX2), SRY (sex determining region Y)-box 2 (from UniProt P48431 1-317)
binding: binds
